# Laboratory results taken from the supplement of paper PMC10849652.
# Amino acid sequences for entries named in this document (tags omitted). A change or cut given only in a name is not applied to a line headed by its entry.
# UniProt Q8N6M0: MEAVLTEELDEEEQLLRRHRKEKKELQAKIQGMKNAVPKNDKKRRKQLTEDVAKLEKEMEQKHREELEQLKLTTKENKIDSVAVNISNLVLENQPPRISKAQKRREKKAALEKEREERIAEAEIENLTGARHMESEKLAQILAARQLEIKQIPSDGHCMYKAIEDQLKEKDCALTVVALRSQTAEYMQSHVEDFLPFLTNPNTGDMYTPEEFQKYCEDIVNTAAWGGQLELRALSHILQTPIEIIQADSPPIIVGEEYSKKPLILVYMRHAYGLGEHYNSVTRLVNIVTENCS
# UniProt Q9H6K4: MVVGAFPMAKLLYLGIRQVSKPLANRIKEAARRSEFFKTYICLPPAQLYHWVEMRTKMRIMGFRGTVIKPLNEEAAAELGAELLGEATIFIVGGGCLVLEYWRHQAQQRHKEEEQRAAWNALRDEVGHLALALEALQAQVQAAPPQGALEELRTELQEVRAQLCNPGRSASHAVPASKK
# UniProt Q8TB37: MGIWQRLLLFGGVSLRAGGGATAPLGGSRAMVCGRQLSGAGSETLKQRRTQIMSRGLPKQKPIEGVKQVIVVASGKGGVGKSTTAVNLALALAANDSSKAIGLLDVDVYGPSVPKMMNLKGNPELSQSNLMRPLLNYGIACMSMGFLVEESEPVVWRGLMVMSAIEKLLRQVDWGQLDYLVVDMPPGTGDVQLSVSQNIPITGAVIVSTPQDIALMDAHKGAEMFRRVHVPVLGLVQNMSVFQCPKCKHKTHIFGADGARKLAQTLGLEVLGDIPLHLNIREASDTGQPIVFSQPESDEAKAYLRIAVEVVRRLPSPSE
# UniProt Q9BRJ7: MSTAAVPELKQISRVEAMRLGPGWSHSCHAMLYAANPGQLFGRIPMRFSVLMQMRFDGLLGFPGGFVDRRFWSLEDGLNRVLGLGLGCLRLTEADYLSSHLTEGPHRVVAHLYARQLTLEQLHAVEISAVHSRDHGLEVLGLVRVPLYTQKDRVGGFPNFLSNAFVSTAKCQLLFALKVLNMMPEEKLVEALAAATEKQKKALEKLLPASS
# UniProt Q6N063: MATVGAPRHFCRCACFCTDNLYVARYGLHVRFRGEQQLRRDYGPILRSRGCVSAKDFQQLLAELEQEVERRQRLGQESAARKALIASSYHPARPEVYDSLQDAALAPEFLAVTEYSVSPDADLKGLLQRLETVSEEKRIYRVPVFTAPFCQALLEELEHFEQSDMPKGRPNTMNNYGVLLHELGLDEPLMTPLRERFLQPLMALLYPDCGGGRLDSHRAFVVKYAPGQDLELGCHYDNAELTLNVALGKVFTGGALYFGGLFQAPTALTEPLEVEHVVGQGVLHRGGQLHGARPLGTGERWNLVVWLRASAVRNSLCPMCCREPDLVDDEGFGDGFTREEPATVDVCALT
# UniProt O43929: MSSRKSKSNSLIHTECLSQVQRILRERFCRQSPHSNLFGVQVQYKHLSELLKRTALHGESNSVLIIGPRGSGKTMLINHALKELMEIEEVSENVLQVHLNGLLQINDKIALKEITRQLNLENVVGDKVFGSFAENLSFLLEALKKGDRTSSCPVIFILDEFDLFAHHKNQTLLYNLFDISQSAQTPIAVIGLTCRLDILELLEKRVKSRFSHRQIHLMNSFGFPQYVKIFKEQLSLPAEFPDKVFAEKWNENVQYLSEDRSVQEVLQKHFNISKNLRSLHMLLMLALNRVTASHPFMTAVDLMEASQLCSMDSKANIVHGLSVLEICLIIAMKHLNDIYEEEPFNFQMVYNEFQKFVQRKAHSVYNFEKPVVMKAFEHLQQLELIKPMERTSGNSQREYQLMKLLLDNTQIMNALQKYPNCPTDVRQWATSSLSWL
# UniProt Q9UKX7: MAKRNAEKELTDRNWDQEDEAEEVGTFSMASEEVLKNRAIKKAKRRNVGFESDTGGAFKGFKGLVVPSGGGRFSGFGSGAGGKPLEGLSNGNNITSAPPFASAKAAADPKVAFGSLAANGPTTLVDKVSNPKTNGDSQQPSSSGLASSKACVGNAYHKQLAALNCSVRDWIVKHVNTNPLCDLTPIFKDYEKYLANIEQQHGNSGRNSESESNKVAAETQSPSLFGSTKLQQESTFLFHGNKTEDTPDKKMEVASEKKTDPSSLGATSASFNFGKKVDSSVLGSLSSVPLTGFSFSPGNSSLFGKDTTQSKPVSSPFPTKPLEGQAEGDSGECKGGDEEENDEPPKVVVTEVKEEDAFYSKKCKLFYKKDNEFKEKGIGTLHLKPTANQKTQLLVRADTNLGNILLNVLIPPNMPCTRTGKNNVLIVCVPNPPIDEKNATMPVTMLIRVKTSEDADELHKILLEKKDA
# UniProt P52948: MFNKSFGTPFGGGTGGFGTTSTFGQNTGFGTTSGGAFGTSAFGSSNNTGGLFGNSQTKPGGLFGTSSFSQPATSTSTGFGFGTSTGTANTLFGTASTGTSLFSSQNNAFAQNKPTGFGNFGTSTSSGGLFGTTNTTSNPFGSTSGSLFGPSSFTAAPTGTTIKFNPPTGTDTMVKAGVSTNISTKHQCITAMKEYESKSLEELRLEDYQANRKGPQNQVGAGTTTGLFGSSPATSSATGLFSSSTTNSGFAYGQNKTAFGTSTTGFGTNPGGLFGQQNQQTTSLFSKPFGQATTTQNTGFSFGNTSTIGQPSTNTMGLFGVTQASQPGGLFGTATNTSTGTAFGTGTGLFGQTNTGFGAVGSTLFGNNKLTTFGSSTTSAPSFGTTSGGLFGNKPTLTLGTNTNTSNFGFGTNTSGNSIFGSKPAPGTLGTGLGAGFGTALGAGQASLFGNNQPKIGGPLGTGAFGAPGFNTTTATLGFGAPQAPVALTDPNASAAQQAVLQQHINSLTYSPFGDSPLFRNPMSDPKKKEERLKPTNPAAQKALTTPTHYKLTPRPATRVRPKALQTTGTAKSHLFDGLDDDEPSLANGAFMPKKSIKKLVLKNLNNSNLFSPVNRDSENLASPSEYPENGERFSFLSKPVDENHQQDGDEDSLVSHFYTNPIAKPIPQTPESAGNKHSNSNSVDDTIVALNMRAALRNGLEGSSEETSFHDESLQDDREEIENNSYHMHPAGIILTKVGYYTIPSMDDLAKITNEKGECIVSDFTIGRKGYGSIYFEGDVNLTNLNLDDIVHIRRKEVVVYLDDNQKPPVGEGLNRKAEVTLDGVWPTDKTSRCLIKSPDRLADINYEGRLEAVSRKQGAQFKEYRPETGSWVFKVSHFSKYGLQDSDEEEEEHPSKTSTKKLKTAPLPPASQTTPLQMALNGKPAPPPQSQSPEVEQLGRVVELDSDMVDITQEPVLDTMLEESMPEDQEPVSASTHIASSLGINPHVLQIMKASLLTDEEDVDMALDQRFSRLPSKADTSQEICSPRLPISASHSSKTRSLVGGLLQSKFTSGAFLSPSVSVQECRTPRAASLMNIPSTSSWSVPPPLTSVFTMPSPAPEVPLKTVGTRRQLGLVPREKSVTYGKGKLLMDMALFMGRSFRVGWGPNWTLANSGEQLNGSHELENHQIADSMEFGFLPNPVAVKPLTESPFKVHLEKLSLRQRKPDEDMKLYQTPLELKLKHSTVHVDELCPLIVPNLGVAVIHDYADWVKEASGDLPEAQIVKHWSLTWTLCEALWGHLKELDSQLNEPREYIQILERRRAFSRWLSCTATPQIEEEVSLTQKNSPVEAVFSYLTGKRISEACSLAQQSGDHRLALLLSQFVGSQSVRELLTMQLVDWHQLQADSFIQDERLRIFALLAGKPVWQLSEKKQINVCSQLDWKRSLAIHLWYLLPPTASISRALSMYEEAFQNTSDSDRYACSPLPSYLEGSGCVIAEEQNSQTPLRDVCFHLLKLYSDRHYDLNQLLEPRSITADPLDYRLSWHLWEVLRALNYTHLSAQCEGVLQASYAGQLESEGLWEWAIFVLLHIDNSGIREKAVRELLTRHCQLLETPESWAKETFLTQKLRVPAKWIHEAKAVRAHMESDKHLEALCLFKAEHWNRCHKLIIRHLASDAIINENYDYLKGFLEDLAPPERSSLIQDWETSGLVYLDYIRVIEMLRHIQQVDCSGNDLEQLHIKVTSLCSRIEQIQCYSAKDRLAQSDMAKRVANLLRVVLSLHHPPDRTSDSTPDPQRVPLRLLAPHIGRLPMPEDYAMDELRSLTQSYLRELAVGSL
# UniProt Q9BRP4: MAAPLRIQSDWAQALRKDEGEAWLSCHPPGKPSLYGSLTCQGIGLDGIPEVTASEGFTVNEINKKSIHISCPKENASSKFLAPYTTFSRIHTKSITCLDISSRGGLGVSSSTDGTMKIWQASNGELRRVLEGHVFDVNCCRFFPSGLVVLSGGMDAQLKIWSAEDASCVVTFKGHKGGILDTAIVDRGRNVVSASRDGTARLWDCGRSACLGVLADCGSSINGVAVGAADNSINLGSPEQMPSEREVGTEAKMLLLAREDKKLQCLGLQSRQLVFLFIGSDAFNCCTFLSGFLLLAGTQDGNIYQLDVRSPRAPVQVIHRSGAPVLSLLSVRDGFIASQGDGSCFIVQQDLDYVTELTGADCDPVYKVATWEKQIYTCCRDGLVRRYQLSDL
# UniProt Q5SRE5: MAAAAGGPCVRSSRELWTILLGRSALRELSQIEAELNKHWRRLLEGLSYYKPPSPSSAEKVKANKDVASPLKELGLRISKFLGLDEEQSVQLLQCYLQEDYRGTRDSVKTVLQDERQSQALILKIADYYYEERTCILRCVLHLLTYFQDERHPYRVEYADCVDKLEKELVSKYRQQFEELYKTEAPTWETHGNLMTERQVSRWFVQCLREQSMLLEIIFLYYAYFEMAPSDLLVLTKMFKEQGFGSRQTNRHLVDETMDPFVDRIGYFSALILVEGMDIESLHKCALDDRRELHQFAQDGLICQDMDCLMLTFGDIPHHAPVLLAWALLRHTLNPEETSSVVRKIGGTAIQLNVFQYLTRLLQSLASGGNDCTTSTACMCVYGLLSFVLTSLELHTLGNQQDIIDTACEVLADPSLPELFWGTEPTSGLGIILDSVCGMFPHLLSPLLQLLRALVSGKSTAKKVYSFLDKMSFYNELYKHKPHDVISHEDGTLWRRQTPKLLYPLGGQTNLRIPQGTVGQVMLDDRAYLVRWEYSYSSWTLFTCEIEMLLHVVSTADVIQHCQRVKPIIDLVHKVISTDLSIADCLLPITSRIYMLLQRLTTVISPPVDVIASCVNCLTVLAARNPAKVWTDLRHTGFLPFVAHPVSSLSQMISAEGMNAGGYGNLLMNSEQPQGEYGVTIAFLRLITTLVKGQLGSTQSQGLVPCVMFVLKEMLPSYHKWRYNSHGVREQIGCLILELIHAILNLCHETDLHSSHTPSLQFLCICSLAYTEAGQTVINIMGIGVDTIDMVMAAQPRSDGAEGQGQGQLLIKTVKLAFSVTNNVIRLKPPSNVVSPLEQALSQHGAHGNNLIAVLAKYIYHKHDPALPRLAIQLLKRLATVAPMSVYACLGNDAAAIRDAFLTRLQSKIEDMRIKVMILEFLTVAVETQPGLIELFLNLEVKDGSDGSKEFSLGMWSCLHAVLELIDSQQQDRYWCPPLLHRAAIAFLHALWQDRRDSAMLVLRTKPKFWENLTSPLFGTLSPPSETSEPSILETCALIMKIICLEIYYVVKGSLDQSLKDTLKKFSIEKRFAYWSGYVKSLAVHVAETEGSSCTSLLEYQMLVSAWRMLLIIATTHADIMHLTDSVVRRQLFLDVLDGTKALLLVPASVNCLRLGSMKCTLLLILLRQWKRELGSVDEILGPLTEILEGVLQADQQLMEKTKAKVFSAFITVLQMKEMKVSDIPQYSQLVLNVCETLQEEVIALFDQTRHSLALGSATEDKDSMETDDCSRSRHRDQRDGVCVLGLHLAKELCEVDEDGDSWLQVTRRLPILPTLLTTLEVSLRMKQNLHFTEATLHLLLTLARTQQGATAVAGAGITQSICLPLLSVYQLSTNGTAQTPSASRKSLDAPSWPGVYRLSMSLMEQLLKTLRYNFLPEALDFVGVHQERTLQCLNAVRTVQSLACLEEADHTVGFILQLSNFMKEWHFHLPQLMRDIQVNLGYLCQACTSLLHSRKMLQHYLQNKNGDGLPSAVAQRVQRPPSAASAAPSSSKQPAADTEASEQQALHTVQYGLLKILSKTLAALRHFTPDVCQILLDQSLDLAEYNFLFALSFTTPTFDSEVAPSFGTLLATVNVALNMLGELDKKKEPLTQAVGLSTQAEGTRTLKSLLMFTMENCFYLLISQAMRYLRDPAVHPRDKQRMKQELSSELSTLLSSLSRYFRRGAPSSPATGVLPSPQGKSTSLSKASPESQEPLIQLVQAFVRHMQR
# UniProt Q8NFH4: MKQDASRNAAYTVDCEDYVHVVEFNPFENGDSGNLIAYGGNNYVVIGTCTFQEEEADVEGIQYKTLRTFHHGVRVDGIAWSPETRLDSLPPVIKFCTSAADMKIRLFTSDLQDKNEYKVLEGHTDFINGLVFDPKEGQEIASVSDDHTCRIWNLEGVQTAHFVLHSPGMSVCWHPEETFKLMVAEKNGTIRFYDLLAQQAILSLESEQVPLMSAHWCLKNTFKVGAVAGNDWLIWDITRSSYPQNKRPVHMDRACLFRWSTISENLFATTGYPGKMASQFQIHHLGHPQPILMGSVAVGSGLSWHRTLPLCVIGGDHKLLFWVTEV
# This is one part of the list.
# Experiments:
# Test in all cases: log2 fold change, soluble protein after heating vs DMSO (PISA); higher = thermal stabilisation; K562 cells, 10 uM, 30 min; active = over 0.2 and 3.5 SD of the protein, either way, in both replicates (recomputed)
# erlotinib = compound: C#Cc1cccc(Nc2ncnc3cc(OCCOC)c(OCCOC)cc23)c1 [erlotinib]
# How it was run: (§1)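 K562 cells (2×10^6 cells/mL) were treated with 10 μM compound for 30 min, and aliquots were heated for 3 min over 48°C-58°C. Pooled aliquots were extracted in PBS with 0.5% NP-40 at 4°C, and the supernatant after 21,000xg for 90 min was measured by TMTpro 16plex LC-MS/MS with channel sums equalised. Reported thermal stability, relative to control samples and from duplicates, is a log2 fold change.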
# [1] = compound: C/C(=N\NC(=O)C1=CC(=CC=C1)S(=O)(=O)N2CCOCC2)/C3=C(C=CC(=C3)Cl)O
# How it was run: as §1
# [2] = compound: C1=CC(=C(C=C1Cl)C2=NC3=NC=CN=C3C(=N2)NC4=CC=NC=C4)F
# How it was run: as §1
# [3] = compound: C1=CC(=CC=C1C2=NC3=C(N2)C=C(C=C3)C(=O)N)OC4=CC=C(C=C4)Cl
# How it was run: as §1
# [4] = compound: C1=CC2=C(C=CC(=C2)/C=C\3/C(=O)NC(=NCC4=CC=CS4)S3)N=C1
# How it was run: as §1
# [5] = compound: C1=CC2=NC=CN=C2C=C1/C=C/3\C(=O)NC(=O)S3
# How it was run: as §1
# [6] = compound: C1=CC=C(C=C1)C2=NC(=C(N2)C3=CC=NC=C3)C4=CC(=C(C=C4)Cl)O
# How it was run: as §1
# [7] = compound: C1=CC=C2C(=C1)C3=NNC4=CC=CC(=C43)C2=O
# How it was run: as §1
# [8] = compound: C1CCN(C1)C(=O)NC2=CC=CC(=C2)NC3=NC=C(C(=N3)NCCC4=CN=CN4)Br
# How it was run: as §1
# [9] = compound: C1CN(CCC1(CC2=CC=C(C=C2)Cl)N)C3=NC=NC4=C3C=CN4
# How it was run: as §1
Target,log2 fold change (erlotinib),log2 fold change [1],log2 fold change [2],log2 fold change [3],log2 fold change [4],log2 fold change [5],log2 fold change [6],log2 fold change [7],log2 fold change [8],log2 fold change [9]
NT5DC1 (UniProt Q5TFE4),inactive: 0.071,inactive: 0.001,inactive: 0.087,inactive: -0.019,inactive: 0.087,inactive: -0.008,inactive: 0.02,inactive: 0.02,inactive: 0.008,inactive: 0.028
OTUD6B (UniProt Q8N6M0),inactive: 0.053,inactive: 0.117,inactive: -0.103,inactive: 0.019,inactive: 0.142,inactive: 0.032,inactive: -0.001,inactive: 0.051,inactive: -0.014,inactive: -0.055
OPA3 (UniProt Q9H6K4),inactive: 0.054,inactive: -0.052,inactive: 0.029,inactive: 0.065,inactive: 0.005,inactive: -0.031,inactive: 0.173,inactive: -0.061,inactive: 0.021,inactive: 0.029
OXCT1 (UniProt P55809),inactive: -0.023,inactive: 0.049,inactive: 0.117,inactive: -0.044,inactive: 0.014,inactive: 0.06,inactive: 0,inactive: 0.027,inactive: 0.019,inactive: 0.036
NUBPL (UniProt Q8TB37),inactive: -0.036,inactive: 0.048,inactive: -0.029,inactive: 0.027,inactive: -0.012,inactive: 0.036,inactive: -0.031,inactive: -0.001,inactive: -0.077,inactive: 0.037
OLA1 (UniProt Q9NTK5),inactive: -0.037,inactive: 0.046,inactive: 0.056,inactive: -0.015,inactive: 0.01,inactive: 0.01,inactive: -0.007,inactive: 0.018,inactive: -0.014,inactive: 0.019
NUDCD1 (UniProt Q96RS6),inactive: 0.024,inactive: 0.066,inactive: 0.067,inactive: -0.005,inactive: 0.02,inactive: 0.026,inactive: -0.013,inactive: -0.01,inactive: -0.016,inactive: 0.016
NUB1 (UniProt Q9Y5A7),inactive: 0.071,inactive: 0.118,inactive: 0.039,inactive: -0.011,inactive: -0.066,inactive: -0.007,inactive: -0.091,inactive: 0.069,inactive: 0.04,inactive: -0.163
NSUN4 (UniProt Q96CB9),inactive: 0.051,inactive: -0.013,inactive: -0.049,inactive: 0.151,inactive: -0.035,inactive: -0.012,inactive: -0.036,inactive: 0.045,inactive: -0.01,inactive: -0.065
OXA1L (UniProt Q15070),inactive: -0.014,inactive: 0.029,inactive: -0.005,inactive: 0.012,inactive: 0.01,inactive: 0.021,inactive: 0.006,inactive: -0.029,inactive: 0.012,inactive: 0.043
NUMA1 (UniProt Q14980),inactive: -0.03,inactive: -0.006,inactive: -0.109,inactive: 0.017,inactive: 0.02,inactive: 0.019,inactive: 0.031,inactive: -0.054,inactive: -0.055,inactive: -0.211
NSMCE2 (UniProt Q96MF7),inactive: -0.076,inactive: 0.012,inactive: -0.078,inactive: 0.009,inactive: 0.023,inactive: -0.096,inactive: 0.04,inactive: -0.058,inactive: -0.001,inactive: 0.008
NUDCD3 (UniProt Q8IVD9),inactive: 0.037,inactive: 0.089,inactive: 0.038,inactive: 0.007,inactive: 0.025,inactive: 0.027,inactive: 0.024,inactive: 0,inactive: -0.02,inactive: -0.029
NUDT16L1 (UniProt Q9BRJ7),inactive: -0.042,inactive: 0.041,inactive: 0.003,inactive: 0.024,inactive: 0.007,inactive: 0.049,inactive: 0.014,inactive: -0.01,inactive: 0.022,inactive: -0.005
NTPCR (UniProt Q9BSD7),inactive: 0.063,inactive: 0.031,inactive: 0.093,inactive: 0.062,inactive: 0.055,inactive: 0.013,inactive: 0.012,inactive: 0.059,inactive: -0.01,inactive: 0.045
OGFOD2 (UniProt Q6N063),inactive: -0.051,active: -0.283,inactive: -0.047,inactive: 0.011,inactive: 0.089,inactive: 0.14,inactive: 0.004,inactive: 0.041,inactive: 0.023,inactive: 0.017
NUP107 (UniProt P57740),inactive: -0.05,inactive: 0.004,inactive: -0.128,inactive: 0.063,inactive: 0.04,inactive: 0.065,inactive: -0.037,inactive: -0.192,inactive: -0.145,inactive: -0.005
NUMB (UniProt P49757),inactive: 0.016,inactive: -0.012,inactive: -0.048,inactive: 0.018,inactive: -0.001,inactive: 0.044,inactive: -0.004,inactive: -0.009,inactive: -0.087,inactive: 0.021
OTUD4 (UniProt Q01804),inactive: -0.032,inactive: -0.035,inactive: -0.137,inactive: 0.042,inactive: -0.033,inactive: -0.025,inactive: 0,inactive: 0.038,inactive: -0.011,inactive: 0.04
ORC4 (UniProt O43929),inactive: 0.038,inactive: 0.009,inactive: 0.027,inactive: -0.014,inactive: -0.038,inactive: 0.028,inactive: -0.034,inactive: 0.055,inactive: -0.049,inactive: 0.008
NT5DC2 isoform 2 (UniProt Q9H857),inactive: -0.051,inactive: -0.009,inactive: 0.07,inactive: 0.01,inactive: 0.042,inactive: 0.205,inactive: 0.02,inactive: 0.038,inactive: 0.013,inactive: 0.02
NUDT21 (UniProt O43809),inactive: -0.02,inactive: 0.07,inactive: -0.127,inactive: 0.047,inactive: -0.035,inactive: -0.015,inactive: -0.026,inactive: 0.008,inactive: 0.003,inactive: -0.089
NUP50 (UniProt Q9UKX7),inactive: -0.002,inactive: -0.007,inactive: -0.011,inactive: -0.01,inactive: 0.013,inactive: 0.002,inactive: -0.021,inactive: -0.023,inactive: 0.028,inactive: 0.071
NUP98 (UniProt P52948),inactive: 0.063,inactive: 0.01,inactive: -0.085,inactive: -0.013,inactive: -0.011,inactive: 0.035,inactive: -0.015,inactive: -0.217,inactive: -0.06,inactive: -0.012
OXNAD1 (UniProt Q96HP4),inactive: -0.006,inactive: -0.001,inactive: 0.067,inactive: 0.003,inactive: 0.001,inactive: -0.029,inactive: -0.019,inactive: -0.026,inactive: -0.007,inactive: 0.028
PAAF1 (UniProt Q9BRP4),inactive: 0.038,inactive: 0.032,inactive: 0.097,inactive: 0.068,inactive: -0.009,inactive: 0.009,inactive: 0.027,inactive: 0,inactive: 0.003,inactive: 0.009
NUP188 (UniProt Q5SRE5),inactive: 0.009,inactive: 0.119,inactive: -0.023,inactive: -0.015,inactive: 0.08,inactive: 0.028,inactive: 0.026,inactive: -0.03,inactive: -0.086,inactive: -0.055
NUP37 (UniProt Q8NFH4),inactive: 0.004,inactive: 0.056,inactive: 0.05,inactive: -0.029,inactive: 0.014,inactive: 0.017,inactive: -0.013,inactive: -0.065,inactive: -0.043,inactive: -0.027
NT5C2 (UniProt P49902),inactive: 0.007,inactive: 0.011,inactive: 0.051,inactive: 0.022,inactive: 0.02,inactive: 0.031,inactive: -0.015,inactive: -0.009,inactive: -0.007,inactive: 0.075
NUSAP1 (UniProt Q9BXS6),inactive: -0.029,inactive: -0.114,inactive: -0.166,inactive: 0.004,inactive: -0.02,inactive: 0.026,inactive: -0.009,inactive: -0.009,inactive: 0.058,inactive: -0.028

# An excerpt of these results, as tab-separated lines:
Target	log2 fold change (erlotinib)	log2 fold change [1]	log2 fold change [2]	log2 fold change [3]	log2 fold change [4]	log2 fold change [5]	log2 fold change [6]	log2 fold change [7]	log2 fold change [8]	log2 fold change [9]
OXCT1 (UniProt P55809)	inactive: -0.023	inactive: 0.049	inactive: 0.117	inactive: -0.044	inactive: 0.014	inactive: 0.06	inactive: 0	inactive: 0.027	inactive: 0.019	inactive: 0.036
OGFOD2 (UniProt Q6N063)	inactive: -0.051	active: -0.283	inactive: -0.047	inactive: 0.011	inactive: 0.089	inactive: 0.14	inactive: 0.004	inactive: 0.041	inactive: 0.023	inactive: 0.017
